# Test results from PubChem BioAssay AID1347075 (National Center for Advancing Translational Sciences (NCATS), 2019).
# About 5,500 (1.4%) of roughly 400,000 compounds were called active. Inconclusive results, whose numbers are uncertain, are shown with a selection of clear calls. The call rests on the fitted dose curve; in most records, active means well fitted cell-killing curve with a large enough effect; inconclusive means small, poorly fitted or top-dose-only effect, or effect the other way; inactive means flat fitted curve, though single readings scatter. Where the call is inconclusive, the potency comes from a doubtful curve fit.
# Assay: qHTS assay for MDR1-selective chemotherapeutics: Primary screen using the parental adenocarcinoma cell KB-3-1; further: nearly all actives have a fitted effect of over 60% in size
# Conditions: KB-3-1 viability, CellTiter-Glo ATP luminescence, 72 h; series mostly up to 46.1 µM
# Method in brief: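 Parental KB-3-1 adenocarcinoma cells in phenol-red-free DMEM with 10% FBS were pin-treated with compounds at several concentrations, incubated 72 h at 37 °C, and viability read by CellTiter-Glo luminescence; concentration-effect curves were fitted after normalization.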
# Potency means the concentration at half of the fitted maximal effect.
row,SMILES,Potency
1,NNS(=O)(=O)c1ccc2c(c1)Cc1cc(S(=O)(=O)NN)ccc1-2,inactive
2,COc1ccccc1CNC(=O)COC(=O)c1ccc(C)c(S(=O)(=O)N2CCCCC2)c1,inactive
3,O=C(COc1ccc(Oc2ccccc2)cc1)NC1CCS(=O)(=O)C1 (stereo not drawn),"inconclusive: 23.1 µM [cytotoxic, partial curve, poor fit]"
4,COCCN(C(=O)COC(=O)Cc1c[nH]c2ccccc12)c1c(N)n(Cc2ccccc2)c(=O)[nH]c1=O,"inconclusive: 8.2 µM [cytotoxic, full curve, poor fit]"
5,COc1ccc(OCCN2CCC(C(=O)NC(c3ccc(F)cc3)c3ccc4ccccc4n3)CC2)cc1 (stereo not drawn),"inconclusive: 29.1 µM [cytotoxic, single point]"
6,CC1CN(C(=O)N2CCC(C(=O)NCc3ccco3)CC2)c2cc(Cl)ccc2O1 (stereo not drawn),inactive
7,Cc1ccc(NC(=O)CN2C(=O)CCc3cc(S(=O)(=O)N4CCCCC4)ccc32)cc1N(C)C,"inconclusive: 29.1 µM [cytotoxic, single point]"
8,Cc1ccc2oc(Nc3nc(-c4ccccc4)cc(=O)[nH]3)nc2c1,"inconclusive: 16.4 µM [cytotoxic, partial curve, poor fit]"
9,O=C(CN1CCOCC1)Nc1ncc(Cc2cccc(Cl)c2)s1,inactive
10,COCCCn1c(O)c(/C=C2\N=C(C#N)C(=Nc3ccc(C)cc3)O2)sc1=S,"inconclusive: 18.4 µM [cytotoxic, single point]"
11,CCC(=O)Oc1ccc(NC(=O)CSCc2ccccc2)cc1,"inconclusive: 3.26 µM [cytotoxic, partial curve, poor fit]"
12,CC(=O)Nc1ccc(S(=O)(=O)NC2=C(N3CCN(C)CC3)C(=O)c3ccccc3C2=O)cc1,inactive
13,Cc1onc(-c2ccccc2Cl)c1C(=O)N(C)C1CCCCC1,"inconclusive: 16.4 µM [cytotoxic, single point]"
14,Cc1c(P(=S)(c2ccccc2)c2ccccc2)[n+]2ccccc2n1CCc1ccccc1,active: 13 µM
15,Nc1ccc(-c2cc3ccccc3[nH]2)cc1,"inconclusive: 29.1 µM [rising, single point]"
16,Cc1ccc(Cl)cc1NC(=O)CSc1nc(C)c(C)c(C)c1C#N,"inconclusive: 25.9 µM [cytotoxic, single point]"
17,COc1ccc(-n2c(O)c(/C=N/Nc3nc(C)cc(C)n3)c3ccccc3c2=O)cc1OC,"inconclusive: 6.51 µM [cytotoxic, partial curve]"
18,O=C(O)c1ccccc1C(=O)N(c1ccccc1)c1ccccc1,"inconclusive: 0.0092 µM [rising, full curve]"

# 2 entries from above, with tabs.
row	SMILES	Potency
2	COc1ccccc1CNC(=O)COC(=O)c1ccc(C)c(S(=O)(=O)N2CCCCC2)c1	inactive
10	COCCCn1c(O)c(/C=C2\N=C(C#N)C(=Nc3ccc(C)cc3)O2)sc1=S	inconclusive: 18.4 µM [cytotoxic, single point]
